Experimental data taken from patent US20140256789.

Molecular target: p53 (wild-type, endogenous) (Homo sapiens) (UniProt P04637)
Assay: binding assay
Settings: ChIP with CM1 antibody and qPCR in HCT116; enrichment comparable to p21 site, increased by 5-FU, p53 knockdown control; protein in cells

“GGGCTTGCCTGGGCTTGTTC (double strand) [miR-34a gene p53 binding site (p53BS, exon 1 of pm34a-EST)]”: binds.

At least one result comes from cells or an extract, where the contact may be indirect.
